Binding data for 1 substance are collected here from publication PMC7422068.

Protein sequences, listed by entry. Tags and fused reporters are not part of them.
UniProt Q91YI4: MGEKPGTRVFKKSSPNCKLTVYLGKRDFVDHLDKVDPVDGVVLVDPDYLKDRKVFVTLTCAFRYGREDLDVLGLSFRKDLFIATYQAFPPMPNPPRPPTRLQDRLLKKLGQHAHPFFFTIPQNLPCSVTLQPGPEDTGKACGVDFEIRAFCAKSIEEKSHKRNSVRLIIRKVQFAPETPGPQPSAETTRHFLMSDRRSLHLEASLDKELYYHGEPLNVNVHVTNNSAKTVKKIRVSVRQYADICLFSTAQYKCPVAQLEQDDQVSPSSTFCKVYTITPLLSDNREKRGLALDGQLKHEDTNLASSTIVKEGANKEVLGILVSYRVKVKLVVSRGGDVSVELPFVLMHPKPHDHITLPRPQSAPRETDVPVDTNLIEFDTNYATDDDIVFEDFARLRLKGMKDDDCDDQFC
UniProt Q9Z1E3: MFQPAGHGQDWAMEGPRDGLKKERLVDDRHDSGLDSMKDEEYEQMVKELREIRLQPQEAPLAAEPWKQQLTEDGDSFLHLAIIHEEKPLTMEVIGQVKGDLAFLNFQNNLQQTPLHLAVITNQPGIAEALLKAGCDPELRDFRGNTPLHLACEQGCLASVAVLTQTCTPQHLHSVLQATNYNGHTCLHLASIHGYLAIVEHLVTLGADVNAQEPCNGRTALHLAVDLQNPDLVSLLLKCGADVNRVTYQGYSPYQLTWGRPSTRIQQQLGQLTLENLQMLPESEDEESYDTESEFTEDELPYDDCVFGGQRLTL

This experiment addresses β-arrestin-2 (mouse (endogenous in SV-40 MES 13 glomerular mesangial cells)) (UniProt Q91YI4). The experiment can be described thus: co-IP; cell extracts of mouse GMCs; IP with anti-β-arrestin-2 antibody (normal mouse IgG as negative control), blot with anti-I-κBα antibody; endogenous proteins; cells also treated with 30 mM high glucose, 5 mM butyrate, siRNA-GPR43 or GPR43 overexpression.

Results are given in words; binding and its absence hold for the method and conditions named. In cells and extracts the contact can be indirect. Some results given as binding are weak or reduced against the parent protein; the word gives no strength.

I-κBα (from UniProt Q9Z1E3 1-314): the binding entry is “binds”.
